Results as given in the supplement of paper PMC10849652.
This is one part of the list.

Sequences of proteins named here, by UniProt entry; tags and fusion partners are left off. A change or cut given only in a name is not applied to a line headed by its entry.
UniProt Q9H082: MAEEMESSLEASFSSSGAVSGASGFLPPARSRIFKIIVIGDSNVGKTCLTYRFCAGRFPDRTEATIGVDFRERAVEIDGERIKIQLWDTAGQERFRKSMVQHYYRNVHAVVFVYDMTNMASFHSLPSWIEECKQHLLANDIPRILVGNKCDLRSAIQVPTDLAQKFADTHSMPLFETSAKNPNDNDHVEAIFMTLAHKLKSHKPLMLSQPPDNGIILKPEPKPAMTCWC
UniProt P78406: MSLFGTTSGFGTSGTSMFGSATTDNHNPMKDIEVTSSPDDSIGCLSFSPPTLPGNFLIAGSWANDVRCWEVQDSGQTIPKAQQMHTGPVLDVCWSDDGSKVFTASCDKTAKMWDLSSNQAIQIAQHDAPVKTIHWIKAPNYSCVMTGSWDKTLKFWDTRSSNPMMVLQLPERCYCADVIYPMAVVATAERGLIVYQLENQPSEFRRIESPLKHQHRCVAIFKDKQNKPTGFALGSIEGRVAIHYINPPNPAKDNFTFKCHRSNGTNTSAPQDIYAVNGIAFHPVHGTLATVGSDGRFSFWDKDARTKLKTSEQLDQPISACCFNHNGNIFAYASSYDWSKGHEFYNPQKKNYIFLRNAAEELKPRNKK
UniProt Q8WUD1: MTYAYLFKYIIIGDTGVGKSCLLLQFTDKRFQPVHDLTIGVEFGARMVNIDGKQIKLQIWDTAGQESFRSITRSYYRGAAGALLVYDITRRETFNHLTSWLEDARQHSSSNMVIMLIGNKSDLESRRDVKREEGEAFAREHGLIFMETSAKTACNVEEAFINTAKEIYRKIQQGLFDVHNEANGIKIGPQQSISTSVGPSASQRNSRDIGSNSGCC
UniProt Q6WKZ4: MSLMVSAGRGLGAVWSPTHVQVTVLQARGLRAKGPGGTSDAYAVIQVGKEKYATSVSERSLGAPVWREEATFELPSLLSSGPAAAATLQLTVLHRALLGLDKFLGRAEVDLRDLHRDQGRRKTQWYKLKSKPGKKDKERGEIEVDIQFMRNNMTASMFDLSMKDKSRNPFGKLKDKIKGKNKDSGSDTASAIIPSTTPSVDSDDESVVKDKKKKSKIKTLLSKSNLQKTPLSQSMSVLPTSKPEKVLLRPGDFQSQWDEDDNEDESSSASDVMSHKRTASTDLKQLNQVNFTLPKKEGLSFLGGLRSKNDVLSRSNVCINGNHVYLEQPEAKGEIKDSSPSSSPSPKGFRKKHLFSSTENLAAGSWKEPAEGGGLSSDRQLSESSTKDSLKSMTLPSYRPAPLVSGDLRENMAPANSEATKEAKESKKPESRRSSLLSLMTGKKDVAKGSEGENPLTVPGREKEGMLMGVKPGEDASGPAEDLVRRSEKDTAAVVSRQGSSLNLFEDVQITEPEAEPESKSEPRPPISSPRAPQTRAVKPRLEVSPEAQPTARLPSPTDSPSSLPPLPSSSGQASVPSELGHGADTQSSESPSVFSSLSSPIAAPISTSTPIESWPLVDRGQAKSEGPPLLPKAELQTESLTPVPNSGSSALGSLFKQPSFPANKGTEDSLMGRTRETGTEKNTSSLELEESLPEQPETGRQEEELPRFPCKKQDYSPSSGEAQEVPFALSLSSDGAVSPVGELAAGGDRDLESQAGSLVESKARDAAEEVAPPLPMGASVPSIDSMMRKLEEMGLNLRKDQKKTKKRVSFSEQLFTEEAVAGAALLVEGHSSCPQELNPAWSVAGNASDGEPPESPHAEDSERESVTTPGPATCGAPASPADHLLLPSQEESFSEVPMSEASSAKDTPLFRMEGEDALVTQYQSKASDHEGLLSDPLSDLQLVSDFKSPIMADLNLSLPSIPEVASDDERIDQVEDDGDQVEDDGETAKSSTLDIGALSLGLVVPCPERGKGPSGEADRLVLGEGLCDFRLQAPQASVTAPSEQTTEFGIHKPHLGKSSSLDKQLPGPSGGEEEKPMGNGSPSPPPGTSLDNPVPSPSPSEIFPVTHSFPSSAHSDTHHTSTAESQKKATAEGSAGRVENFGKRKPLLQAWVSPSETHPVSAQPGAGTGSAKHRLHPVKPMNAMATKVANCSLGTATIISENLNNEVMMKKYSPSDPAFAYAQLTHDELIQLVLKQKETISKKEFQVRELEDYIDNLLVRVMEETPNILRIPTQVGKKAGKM
UniProt P51159: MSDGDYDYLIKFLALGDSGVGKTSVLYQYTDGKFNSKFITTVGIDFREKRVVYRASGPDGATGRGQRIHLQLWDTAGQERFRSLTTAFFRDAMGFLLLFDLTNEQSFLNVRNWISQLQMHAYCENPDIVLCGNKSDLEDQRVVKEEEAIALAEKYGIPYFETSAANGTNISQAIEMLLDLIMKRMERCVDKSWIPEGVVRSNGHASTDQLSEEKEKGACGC
UniProt P06400: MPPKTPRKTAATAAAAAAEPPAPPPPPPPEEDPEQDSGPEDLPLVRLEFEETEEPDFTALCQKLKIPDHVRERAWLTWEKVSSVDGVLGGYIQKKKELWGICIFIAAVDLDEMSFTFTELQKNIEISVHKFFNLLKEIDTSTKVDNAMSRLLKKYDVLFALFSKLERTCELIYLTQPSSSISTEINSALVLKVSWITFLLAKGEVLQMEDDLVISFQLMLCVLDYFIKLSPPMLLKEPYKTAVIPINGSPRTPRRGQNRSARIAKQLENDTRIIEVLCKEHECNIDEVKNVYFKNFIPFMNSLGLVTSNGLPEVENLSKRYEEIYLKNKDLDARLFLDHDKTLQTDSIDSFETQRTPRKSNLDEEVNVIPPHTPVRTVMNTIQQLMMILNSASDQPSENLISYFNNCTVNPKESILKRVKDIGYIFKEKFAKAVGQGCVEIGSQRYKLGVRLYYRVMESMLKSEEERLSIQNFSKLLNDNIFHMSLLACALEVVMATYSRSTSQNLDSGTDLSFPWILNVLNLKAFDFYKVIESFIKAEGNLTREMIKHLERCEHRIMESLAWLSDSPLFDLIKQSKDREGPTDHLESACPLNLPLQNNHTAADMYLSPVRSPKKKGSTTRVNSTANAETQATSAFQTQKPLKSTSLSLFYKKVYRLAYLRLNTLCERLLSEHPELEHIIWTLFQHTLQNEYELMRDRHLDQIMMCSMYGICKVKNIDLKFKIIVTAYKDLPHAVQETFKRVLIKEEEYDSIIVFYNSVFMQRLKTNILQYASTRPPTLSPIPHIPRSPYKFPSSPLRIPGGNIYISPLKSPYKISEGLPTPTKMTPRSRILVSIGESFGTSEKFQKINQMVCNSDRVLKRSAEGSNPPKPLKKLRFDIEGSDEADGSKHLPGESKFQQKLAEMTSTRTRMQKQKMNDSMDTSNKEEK
UniProt P61020: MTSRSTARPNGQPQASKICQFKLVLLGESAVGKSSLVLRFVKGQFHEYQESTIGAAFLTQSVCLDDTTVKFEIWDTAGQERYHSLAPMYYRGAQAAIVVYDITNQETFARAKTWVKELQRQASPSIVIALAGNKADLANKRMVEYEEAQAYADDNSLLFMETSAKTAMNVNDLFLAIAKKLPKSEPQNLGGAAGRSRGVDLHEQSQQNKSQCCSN
UniProt P10114: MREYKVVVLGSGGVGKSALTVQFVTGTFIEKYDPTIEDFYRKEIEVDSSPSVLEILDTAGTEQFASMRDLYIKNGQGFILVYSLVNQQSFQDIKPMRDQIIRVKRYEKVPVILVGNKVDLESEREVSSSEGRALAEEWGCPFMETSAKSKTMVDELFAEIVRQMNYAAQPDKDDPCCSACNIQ
UniProt Q92696: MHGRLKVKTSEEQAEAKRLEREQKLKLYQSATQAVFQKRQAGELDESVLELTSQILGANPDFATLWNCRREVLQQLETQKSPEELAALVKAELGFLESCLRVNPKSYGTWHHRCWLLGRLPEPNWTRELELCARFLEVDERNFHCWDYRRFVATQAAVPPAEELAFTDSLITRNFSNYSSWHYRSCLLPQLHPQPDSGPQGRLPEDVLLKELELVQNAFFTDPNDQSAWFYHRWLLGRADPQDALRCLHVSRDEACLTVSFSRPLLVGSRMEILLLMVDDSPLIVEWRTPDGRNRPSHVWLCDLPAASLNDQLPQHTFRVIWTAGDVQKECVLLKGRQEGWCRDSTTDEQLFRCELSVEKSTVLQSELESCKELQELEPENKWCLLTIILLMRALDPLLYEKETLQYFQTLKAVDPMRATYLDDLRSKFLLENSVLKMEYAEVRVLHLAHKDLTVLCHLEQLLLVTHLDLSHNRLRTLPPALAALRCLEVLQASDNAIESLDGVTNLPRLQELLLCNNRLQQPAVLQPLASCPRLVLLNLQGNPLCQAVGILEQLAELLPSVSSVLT
UniProt Q5HYI8: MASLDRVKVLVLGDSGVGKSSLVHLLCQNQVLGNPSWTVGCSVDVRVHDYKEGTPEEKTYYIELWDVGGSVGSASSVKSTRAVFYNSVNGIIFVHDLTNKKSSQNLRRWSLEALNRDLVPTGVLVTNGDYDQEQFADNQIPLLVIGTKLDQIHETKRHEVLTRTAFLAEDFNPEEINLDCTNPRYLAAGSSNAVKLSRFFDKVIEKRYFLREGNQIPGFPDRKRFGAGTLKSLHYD
UniProt P61026: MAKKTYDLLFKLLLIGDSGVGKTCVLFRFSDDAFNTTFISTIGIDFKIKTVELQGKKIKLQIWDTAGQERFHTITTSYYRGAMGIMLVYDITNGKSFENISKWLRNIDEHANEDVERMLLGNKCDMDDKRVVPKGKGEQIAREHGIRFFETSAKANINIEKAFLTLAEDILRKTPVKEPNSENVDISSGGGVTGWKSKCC
UniProt P61018: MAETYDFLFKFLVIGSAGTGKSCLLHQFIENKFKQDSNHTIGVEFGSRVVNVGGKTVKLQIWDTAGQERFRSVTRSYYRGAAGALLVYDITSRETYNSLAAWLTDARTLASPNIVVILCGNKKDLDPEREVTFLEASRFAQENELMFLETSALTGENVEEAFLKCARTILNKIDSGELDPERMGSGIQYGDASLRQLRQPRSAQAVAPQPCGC
UniProt Q8TDY2, whole entry, looked up: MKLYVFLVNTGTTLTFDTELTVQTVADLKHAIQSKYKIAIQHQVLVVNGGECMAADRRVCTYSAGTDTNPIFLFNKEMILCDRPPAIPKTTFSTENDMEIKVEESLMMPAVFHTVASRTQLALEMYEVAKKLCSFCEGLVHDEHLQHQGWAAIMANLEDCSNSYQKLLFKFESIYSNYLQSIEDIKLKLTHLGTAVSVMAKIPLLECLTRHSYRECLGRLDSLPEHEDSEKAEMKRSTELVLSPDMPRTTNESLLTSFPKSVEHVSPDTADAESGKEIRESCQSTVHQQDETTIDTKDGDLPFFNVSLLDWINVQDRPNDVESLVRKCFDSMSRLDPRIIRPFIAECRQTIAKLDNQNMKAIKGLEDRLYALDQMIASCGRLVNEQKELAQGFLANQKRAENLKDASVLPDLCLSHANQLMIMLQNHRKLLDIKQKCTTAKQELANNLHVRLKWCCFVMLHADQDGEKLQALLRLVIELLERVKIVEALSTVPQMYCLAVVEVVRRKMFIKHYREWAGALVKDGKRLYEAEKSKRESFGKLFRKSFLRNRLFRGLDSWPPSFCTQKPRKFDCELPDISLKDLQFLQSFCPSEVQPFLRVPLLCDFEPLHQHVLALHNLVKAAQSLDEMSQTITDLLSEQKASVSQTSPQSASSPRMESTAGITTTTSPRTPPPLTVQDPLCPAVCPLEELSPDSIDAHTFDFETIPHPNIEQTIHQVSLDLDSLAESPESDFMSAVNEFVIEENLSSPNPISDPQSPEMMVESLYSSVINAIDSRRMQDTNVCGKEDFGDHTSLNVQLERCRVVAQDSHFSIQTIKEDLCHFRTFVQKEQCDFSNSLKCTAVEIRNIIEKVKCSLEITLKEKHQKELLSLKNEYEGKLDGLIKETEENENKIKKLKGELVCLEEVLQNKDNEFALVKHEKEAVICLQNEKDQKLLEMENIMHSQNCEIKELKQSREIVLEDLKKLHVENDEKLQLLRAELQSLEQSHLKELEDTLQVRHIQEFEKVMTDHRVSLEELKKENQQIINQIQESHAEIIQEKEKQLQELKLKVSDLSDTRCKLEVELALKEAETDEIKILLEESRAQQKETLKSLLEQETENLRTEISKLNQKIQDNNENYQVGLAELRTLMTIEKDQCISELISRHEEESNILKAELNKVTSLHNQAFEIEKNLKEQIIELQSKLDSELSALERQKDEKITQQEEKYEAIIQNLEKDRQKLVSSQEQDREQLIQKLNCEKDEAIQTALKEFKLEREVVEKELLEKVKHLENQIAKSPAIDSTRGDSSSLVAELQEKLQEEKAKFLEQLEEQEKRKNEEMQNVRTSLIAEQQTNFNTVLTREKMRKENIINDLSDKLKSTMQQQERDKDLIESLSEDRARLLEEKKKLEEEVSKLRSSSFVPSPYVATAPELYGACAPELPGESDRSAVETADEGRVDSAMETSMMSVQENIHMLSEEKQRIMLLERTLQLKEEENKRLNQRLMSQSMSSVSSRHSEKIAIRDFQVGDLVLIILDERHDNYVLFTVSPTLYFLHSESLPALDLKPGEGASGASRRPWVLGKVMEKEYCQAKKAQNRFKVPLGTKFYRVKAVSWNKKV

What was measured:
Test in all cases: log2 fold change, soluble protein after heating vs DMSO (PISA); higher = thermal stabilisation; K562 cells, 10 uM, 30 min; active = over 0.2 and 3.5 SD of the protein, either way, in both replicates (recomputed)
[1] = compound: NC(=O)Nc1cc(-c2cccc(F)c2)sc1C(=O)N[C@H]1CCCNC1
Procedure, shortened: (§1)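 Quantification of soluble protein used TMTpro 16plex LC-MS/MS, with channel sums equalised. Samples were the supernatant after 21,000xg for 90 min of pooled aliquots from K562 cells (2×10^6 cells/mL) treated with 10 μM compound for 30 min, heated for 3 min over 48°C-58°C, and extracted in PBS with 0.5% NP-40 at 4°C. Values, from duplicates, describe thermal stability against control samples on a log2 fold-change scale.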

[2] = compound: NC(=O)c1cnc(N[C@@H]2CCCC[C@@H]2N)nc1Nc1cccc(-n2nccn2)c1
Procedure, shortened: as §1

[3] = compound: NC1(c2ccc(-c3nc4ccn5c(=O)[nH]nc5c4cc3-c3ccccc3)cc2)CCC1
Procedure, shortened: as §1

[4] = compound: NCC(=O)Nc1ccc(-n2nc(C(F)(F)F)cc2-c2ccc3c(ccc4ccccc43)c2)cc1
Procedure, shortened: as §1

entinostat = compound: Nc1ccccc1NC(=O)c1ccc(CNC(=O)OCc2cccnc2)cc1 [entinostat]
Procedure, shortened: as §1

vorinostat = compound: O=C(CCCCCCC(=O)Nc1ccccc1)NO [vorinostat]
Procedure, shortened: as §1

citarinostat = compound: O=C(CCCCCCNC(=O)c1cnc(N(c2ccccc2)c2ccccc2Cl)nc1)NO [citarinostat]
Procedure, shortened: as §1

silmitasertib = compound: O=C(O)c1ccc2c(c1)nc(Nc1cccc(Cl)c1)c1ccncc12 [silmitasertib]
Procedure, shortened: as §1

[5] = compound: O=C1NC(=O)C(c2cnc3ccccn23)=C1c1cn2c3c(cc(F)cc13)CN(C(=O)N1CCCCC1)CC2
Procedure, shortened: as §1

[6] = compound: c1cc(OCCN2CCCCC2)cc(-c2n[nH]c3ccc(-c4nnc[nH]4)cc23)c1
Procedure, shortened: as §1

Target | log2 fold change [1] | log2 fold change [2] | log2 fold change [3] | log2 fold change [4] | log2 fold change (entinostat) | log2 fold change (vorinostat) | log2 fold change (citarinostat) | log2 fold change (silmitasertib) | log2 fold change [5] | log2 fold change [6]
RAB33B (UniProt Q9H082) | inactive: -0.032 | inactive: 0.014 | inactive: 0.037 | inactive: -0.019 | inactive: -0.035 | inactive: -0.021 | inactive: -0.016 | inactive: -0.014 | inactive: -0.048 | inactive: -0.032
RAE1 (UniProt P78406) | inactive: -0.049 | inactive: -0.004 | inactive: -0.016 | inactive: -0.029 | inactive: -0.036 | inactive: 0.025 | inactive: -0.049 | inactive: 0.084 | inactive: 0.034 | inactive: 0.156
RAB2B (UniProt Q8WUD1) | inactive: 0.037 | inactive: 0.016 | inactive: -0.012 | inactive: -0.009 | inactive: 0.002 | inactive: 0.006 | inactive: 0.018 | inactive: -0.021 | inactive: -0.059 | inactive: -0.021
RAB11FIP1 (UniProt Q6WKZ4) | inactive: 0.019 | inactive: -0.121 | inactive: -0.086 | inactive: -0.009 | inactive: 0.041 | inactive: 0.091 | inactive: 0.065 | inactive: 0.016 | inactive: 0 | inactive: -0.07
RAB18 (UniProt Q9NP72) | inactive: 0.071 | inactive: 0.034 | inactive: -0.022 | inactive: 0.007 | inactive: 0.046 | inactive: 0.027 | inactive: 0.017 | inactive: -0.014 | inactive: 0.005 | inactive: -0.039
RAB27A (UniProt P51159) | inactive: -0.038 | inactive: -0.041 | inactive: -0.099 | inactive: -0.009 | inactive: 0.015 | inactive: -0.041 | inactive: 0.047 | inactive: 0.029 | inactive: -0.01 | inactive: -0.014
RANBP9 (UniProt Q96S59) | inactive: -0.004 | inactive: 0.009 | inactive: -0.081 | inactive: -0.021 | inactive: 0.009 | inactive: 0 | inactive: 0.042 | inactive: 0.072 | inactive: -0.016 | inactive: -0.046
RAP1A (UniProt P62834) | inactive: -0.025 | inactive: 0.036 | inactive: 0.059 | inactive: 0.066 | inactive: -0.039 | inactive: -0.058 | inactive: 0.016 | inactive: -0.063 | inactive: 0.003 | inactive: -0.003
RABGEF1 isoform 3 (UniProt Q9UJ41) | inactive: -0.01 | inactive: -0.091 | inactive: -0.012 | inactive: -0.066 | inactive: -0.02 | inactive: 0.062 | inactive: 0.042 | inactive: -0.002 | inactive: 0.096 | inactive: -0.019
RALA (UniProt P11233) | inactive: -0.03 | inactive: -0.019 | inactive: 0.057 | inactive: 0.004 | inactive: -0.064 | inactive: 0.142 | inactive: 0.082 | inactive: -0.021 | inactive: 0.028 | inactive: -0.028
RAVER1 (UniProt E9PAU2) | inactive: -0.063 | inactive: -0.35 | inactive: -0.1 | inactive: -0.32 | inactive: 0.211 | inactive: 0.207 | inactive: 0.166 | inactive: -0.022 | inactive: -0.244 | inactive: -0.088
RANGAP1 (UniProt P46060) | inactive: 0.023 | inactive: -0.063 | inactive: -0.093 | inactive: -0.053 | inactive: 0.051 | inactive: 0.076 | inactive: 0.089 | inactive: 0.105 | inactive: 0.01 | inactive: -0.025
RB1 (UniProt P06400) | inactive: 0.11 | inactive: -0.133 | inactive: -0.072 | inactive: -0.01 | inactive: 0.015 | inactive: 0.05 | inactive: 0.039 | inactive: 0.039 | active: -0.241 | inactive: -0.038
RAB5B (UniProt P61020) | inactive: 0.123 | inactive: 0.062 | inactive: -0.033 | inactive: 0.039 | inactive: 0.046 | inactive: -0.031 | inactive: 0.031 | inactive: -0.025 | inactive: 0.009 | inactive: 0.018
RAB3GAP2 (UniProt Q9H2M9) | inactive: -0.049 | inactive: -0.067 | inactive: -0.089 | inactive: -0.04 | inactive: 0.057 | inactive: 0.106 | inactive: 0.089 | inactive: 0.095 | inactive: 0.099 | inactive: -0.065
RAB5A (UniProt P20339) | inactive: 0.053 | inactive: 0.092 | inactive: 0.026 | inactive: 0.116 | inactive: 0.06 | inactive: 0.091 | inactive: -0.007 | inactive: -0.055 | inactive: 0.04 | inactive: 0.034
RAC2 (UniProt P15153) | inactive: -0.059 | inactive: 0.005 | inactive: 0 | inactive: -0.024 | inactive: -0.031 | inactive: -0.043 | inactive: -0.014 | inactive: -0.036 | inactive: -0.012 | inactive: -0.01
RAB3IP (UniProt Q96QF0) | inactive: -0.014 | inactive: -0.179 | inactive: -0.074 | inactive: -0.351 | inactive: -0.038 | inactive: 0.024 | inactive: 0.104 | inactive: -0.013 | inactive: 0.146 | inactive: 0.167
RACK1 (UniProt D6RF23) | inactive: -0.282 | inactive: -0.11 | inactive: -0.207 | inactive: -0.192 | inactive: 0.002 | inactive: 0.006 | inactive: -0.12 | inactive: 0.138 | inactive: -0.032 | inactive: -0.353
RAP2A (UniProt P10114) | inactive: -0.147 | inactive: 0.008 | inactive: 0.028 | inactive: -0.063 | inactive: -0.085 | inactive: 0.104 | inactive: -0.041 | inactive: -0.057 | inactive: -0.078 | inactive: -0.092
RABGGTA (UniProt Q92696) | inactive: 0.034 | inactive: -0.008 | active: -0.257 | inactive: 0.051 | inactive: -0.05 | inactive: 0.005 | inactive: 0.038 | inactive: 0.008 | inactive: 0.003 | inactive: 0.027
RAB3IL1 (UniProt Q8TBN0) | inactive: 0.041 | inactive: -0.011 | inactive: -0.025 | inactive: -0.046 | inactive: -0.019 | inactive: -0.032 | inactive: 0.035 | inactive: 0.053 | inactive: -0.038 | inactive: 0.008
RABL3 (UniProt Q5HYI8) | inactive: -0.028 | inactive: 0.005 | inactive: -0.09 | inactive: 0.024 | inactive: -0.005 | inactive: -0.01 | inactive: 0.033 | inactive: -0.005 | inactive: -0.021 | inactive: 0.014
RAB10 (UniProt P61026) | inactive: -0.08 | inactive: -0.009 | inactive: 0.088 | inactive: -0.015 | inactive: -0.01 | inactive: -0.067 | inactive: 0.016 | inactive: -0.009 | inactive: -0.062 | inactive: -0.03
RAB8A isoform 2 (UniProt P61006) | inactive: -0.019 | inactive: 0.026 | inactive: -0.057 | inactive: 0.023 | inactive: -0.04 | inactive: -0.087 | inactive: 0.008 | inactive: 0.008 | inactive: -0.016 | inactive: -0.045
RAB31 (UniProt Q13636) | inactive: -0.078 | inactive: 0.027 | inactive: -0.032 | inactive: -0.004 | inactive: -0.06 | inactive: -0.033 | inactive: -0.003 | inactive: -0.016 | inactive: -0.054 | inactive: 0.026
RAB3GAP1 (UniProt Q15042) | inactive: -0.055 | inactive: -0.093 | inactive: -0.096 | inactive: -0.091 | inactive: 0.015 | inactive: 0.027 | inactive: 0.074 | inactive: 0.118 | inactive: 0.125 | inactive: -0.055
RAB13 (UniProt P51153) | inactive: 0.095 | inactive: 0.027 | inactive: -0.046 | inactive: 0.199 | inactive: 0.074 | inactive: 0.01 | inactive: 0.046 | inactive: -0.024 | inactive: 0.05 | inactive: 0.077
RAB4B isoform 2 (UniProt P61018) | inactive: -0.009 | inactive: 0 | inactive: -0.042 | inactive: -0.031 | inactive: -0.033 | inactive: -0.049 | inactive: 0.011 | inactive: -0.007 | inactive: -0.006 | inactive: -0.017
RB1CC1 (UniProt Q8TDY2) | inactive: 0.009 | inactive: 0.124 | inactive: 0.126 | inactive: -0.022 | inactive: 0.001 | inactive: 0.047 | inactive: 0.114 | inactive: -0.08 | inactive: -0.077 | inactive: 0.111

Laid out differently: entries from further up.
Target	log2 fold change [1]	log2 fold change [2]	log2 fold change [3]	log2 fold change [4]	log2 fold change (entinostat)	log2 fold change (vorinostat)	log2 fold change (citarinostat)	log2 fold change (silmitasertib)	log2 fold change [5]	log2 fold change [6]
RALA (UniProt P11233)	inactive: -0.03	inactive: -0.019	inactive: 0.057	inactive: 0.004	inactive: -0.064	inactive: 0.142	inactive: 0.082	inactive: -0.021	inactive: 0.028	inactive: -0.028
RABL3 (UniProt Q5HYI8)	inactive: -0.028	inactive: 0.005	inactive: -0.09	inactive: 0.024	inactive: -0.005	inactive: -0.01	inactive: 0.033	inactive: -0.005	inactive: -0.021	inactive: 0.014
